Data from US20250387458A1, “COACTIVE COMBINATIONS OF ANTIMICROBIALS WITH DISPERSINB” (KANE BIOTECH INC., priority 2020, published 2025).
Structures can show the parent of a compound that is named as a salt. Positions of bridges follow the written chain, without caps; N, C: chain ends. Non-standard residues stand in square brackets, D forms with d. Residues, ends and D or L forms follow the SMILES beside them. ξ: configuration not given here. *: point of attachment. X1 = CC[C@H](C)CCCCC(=O)*; dDab = NCC[C@@H](N)C(=O)O; Dab = NCC[C@H](N)C(=O)O; ξDab = NCCC(N)C(=O)O

Columns and labels:
DspB [1] = assay: Compatibility between antimicrobials or antibiotics and DspB, enzymatic assay in buffer (Method 4); assay type: biochemical, Aggregatibacter actinomycetemcomitans; settings: 100 μg/mL DspB, antimicrobial concentration per figure legend
Description: Method 4: Method to Test Compatibility Between Antimicrobials or Antibiotics and DspB Using Enzymatic Assay
DspB (200 μg/mL) and antimicrobial agent/antibiotic stocks were prepared in respective buffers. 10 mM paranitrophenol (PNP) in 400 mM sodium carbonate, and the buffer (same DspB stock) was used as the standard solution, and negative control, respectively. DspB stock and antimicrobial stock were mixed in equal proportions, and then 4×5 μl samples were taken at defined time points (0, 5, 10, 20, 30, 60, and 120 min) and used to measure the DspB enzyme activity. DspB enzymatic activity was measured using β-N-Acetylglucosaminidase assay kit from Sigma (product code CS0780) in 96-well microtiter plate following the manufacturer's instructions. The plate was incubated for 30 minutes before terminating the reaction. Data analysis was done in Excel. Student T test (paired) was performed for each time point separately using DspB activity in mixture and in control sample as two set of variables.

S. epidermidis biofilm = assay: Compatibility between antimicrobials or antibiotics and DspB, biofilm dispersal assay in buffer (Method 3); assay type: cell-based, Staphylococcus epidermidis; settings: mixture stored at 37° C., 20 μg/ml DspB, antimicrobial concentration per figure legend
Description: Method 3: Method to Test Compatibility Between Antimicrobials or Antibiotics and DspB Using Biofilm Dispersal Assay
S. epidermidis biofilm was grown in 96-well plate and washed three times using sterile water to remove planktonic cells. Antimicrobials or antibiotics and DspB formulations were prepared in 50 mM phosphate or citrate buffer and stored at 37° C. for 2 h and used for treating biofilm at 0 and 2 h. Biofilm was treated using antimicrobials or antibiotics and DspB formulations for 10 min. After treatments, solutions were removed and washed 3 times to remove dispersed biofilm. Remaining biofilms in 96-well plates were stained using Crystal violet, unbound crystal violet was removed by washing the wells with sterile water, the biofilm bound crystal violet was eluted using 33% acetic acid, and the absorbance at 620 nm was taken using a microwell plate reader. Percent biofilm removal was calculated. Data was analyzed using ANOVA and Tukey's test.

DspB [2] = assay: Compatibility between antimicrobials or antibiotics and DspB in gel, enzymatic assay (Method 6); assay type: biochemical, Aggregatibacter actinomycetemcomitans; settings: PF127 wound gel, 100 μg/mL DspB
Description: Method 6: Method to Test Compatibility Between Antimicrobials or Antibiotics and DspB in Gel Using Enzymatic Assay
DspB gel containing 200 μg/ml DspB, 16% […] (PF127), 50 mM Phosphate buffer or citrate, 100 mM NaCl, pH 5.9, and 2× concentrated antimicrobial agent/antibiotics in 16% Poloxamer 405, 50 mM Phosphate buffer, 100 mM NaCl, pH 5.9 were mixed in equal proportions. 4×5 μL aliquots were withdrawn at 0, 5, 10, 20, 30, 60, and 120 min for measurement of DspB enzymatic activity. DspB enzymatic activity was measured using β-N-acetylglucosaminidase assay kit from Sigma (product code CS0780) in 96-well microtiter plate following the manufacturer's instructions. The plate was incubated for 30 minutes before terminating the reaction. Data analysis was done in Excel. Student T test (paired) was performed for each time point separately using DspB activity in mixture and in control sample as two set of variables. […]

Structure (SMILES)	Time DspB was active in the presence of the antimicrobial, enzymatic assay (DspB [1])	Time DspB retained its activity in the presence of the antimicrobial, biofilm dispersal assay (S. epidermidis biofilm)	Time DspB was active in the presence of the antimicrobial, enzymatic assay (DspB [2])	Time DspB was active in the presence of the antimicrobial, enzymatic assay (DspB [2]; listed as polymyxin B sulfate)
CN[C@H](CC(C)C)C(=O)N[C@H]1C(=O)N[C@@H](CC(N)=O)C(=O)N[C@H]2C(=O)N[C@H]3C(=O)N[C@H](C(=O)N[C@H](C(=O)O)c4cc(O)cc(O)c4-c4cc3ccc4O)[C@H](O)c3ccc(c(Cl)c3)Oc3cc2cc(c3O[C@@H]2O[C@H](CO)[C@@H](O)[C@H](O)[C@H]2O[C@H]2C[C@](C)(N)[C@H](O)[C@H](C)O2)Oc2ccc(cc2Cl)[C@H]1O [Vancomycin, vancomycin]	up to 2 h			
CC[C@H](C)CCCCC(=O)N[C@@H](CCN)C(=O)N[C@H](C(=O)NC(CCN)C(=O)N[C@H]1CCNC(=O)[C@H]([C@@H](C)O)NC(=O)[C@H](CCN)NC(=O)[C@H](CCN)NC(=O)[C@H](CC(C)C)NC(=O)[C@@H](Cc2ccccc2)NC(=O)[C@@H](CCN)NC1=O)[C@@H](C)O (stereo partly drawn) [Polymyxin B sulfate] (X1-[Dab]T[ξDab][Dab][dDab][dF]L[Dab][Dab]T; lactam 4-C)	up to 2 h	up to 2 h	≤ 2 h	up to 2 h
Cc1ccc(C(C)C)cc1O [Carvacrol]	up to 2 h	up to 2 h	up to 2 h	
CO[C@H]1/C=C/O[C@@]2(C)Oc3c(C)c(O)c4c(O)c(c(/C=N/N5CCN(C)CC5)c(O)c4c3C2=O)NC(=O)/C(C)=C\C=C\[C@H](C)[C@H](O)[C@@H](C)[C@@H](O)[C@@H](C)[C@H](OC(C)=O)[C@@H]1C [rifampin]	up to 2 h			
O=C/C=C/c1ccccc1 [Cinnamaldehyde]	up to 2 h	up to 2 h	up to 2 h	
